Data reported in PubChem BioAssay AID540276 (National Center for Advancing Translational Sciences (NCATS), 2011).
Out of some 300,000 compounds screened, about 5,400 (1.8%) were called active. The inconclusive results got no clear call from the source; some entries with a clear call stand among them for comparison. Calls come from the whole dose curve; tested in HEK293 cells. Potencies beside an inconclusive call are fits to weak or partial responses and may not hold up.

experiment: qHTS for inhibitors of binding or entry into cells for Marburg Virus; conditions: Marburg virus pseudotyped entry inhibition, cell reporter; activity change, negative = inhibition: at 37.8 µM (top of the series) unless noted
% is set by controls: 0 for no effect and ±100 for the full control effect; potency is the fitted concentration of half-maximal effect.

SMILES | Potency | activity change, negative = inhibition
COc1ccc(/C=N/NC(=O)c2cc(-c3ccccc3OC(C)C)nc3ccccc23)cc1CN1CCOCC1 | inconclusive: 16.4 µM [inhibitor, single point] | 
COc1ccc(-c2cc(C(=O)Nc3ccc(C)c(N)c3)c3ccccc3n2)cc1 | inconclusive: 5.62 µM [inhibitor, single point] | 
O=C(COC(=O)/C=C/c1cccs1)NC(c1ccccc1)c1ccccc1 | inconclusive: 0.708 µM [activator, full curve, poor fit] | 
Cc1ccc(N2C(=O)CC(Sc3ncccc3C(=O)O)C2=O)cc1 (stereo not drawn) |  | inactive: 1.9%
Cc1cccc(N/C=C/c2onc(C)c2[N+](=O)[O-])c1 | inconclusive: 1.26 µM [activator, single point] | 
Nc1ccc(C(=O)N/N=C2\CCCc3c2[nH]c2ccccc32)cc1 |  | inactive: 10.7%
NS(=O)(=O)c1cc2c(cc1Cl)NC(C1CC3C=CC1C3)NS2(=O)=O (stereo not drawn) | inconclusive: 2.06 µM [activator, partial curve] | 
COc1cc(C2c3cc4c(cc3OC(N3CCCC3)C2C)OCO4)cc(OC)c1O (stereo not drawn) |  | inactive: -19.9%
CCC1CCCCN1CCCNC(=O)c1sc2nc(C)cc(C)c2c1-n1cccc1 (stereo not drawn) |  | inactive: 19.6% [at 46.1 µM]
Cc1c(CN2CCCC(CO)(Cc3cccc(Cl)c3)C2)cnn1C (stereo not drawn) | inconclusive: 11.2 µM [inhibitor, partial curve] | 
COc1ccc(-c2noc(CN(C)C(=O)c3ccco3)n2)cc1 | inconclusive: 31.6 µM [activator, partial curve, poor fit] | 
CCNC(=O)NC1c2ccccc2CSc2ccccc21 (stereo not drawn) | inconclusive: 35.5 µM [inhibitor, single point] | 
CC1CCCC(C)N1C(=O)c1cc(-c2ccc3c(c2)OCO3)on1 (stereo not drawn) |  | inactive: -29.7% [at 46.1 µM]
CCOC(=O)Cc1csc(SCc2nc3sc4c(c3c(=O)[nH]2)CCC4)n1 | inconclusive: 0.501 µM [inhibitor, partial curve, poor fit] | 
COc1ccc(Cl)cc1NC(=S)Nc1ccccc1F | inconclusive: 20 µM [inhibitor, single point] | 
CCc1cc2c(cc3c(=O)n(CC(=O)NC(C)C)nc(CC)n32)s1 |  | inactive: 10.8% [at 46.1 µM]
CCOc1cc(N2CCOCC2)c(OCC)cc1NC(=O)c1cc(S(=O)(=O)N2CCOCC2)ccc1C |  | inactive: 0.396%
CN1CC(=O)N(CC(=O)Nc2ccc(OCc3ccccc3)cc2)C1=O |  | inactive: 4.17%
C/C(=N\NC(=O)c1c(Cl)c(C)nn1C)c1cccc(NC(=O)C2CCCC2)c1 |  | inactive: 0.863%
O=C(Cn1nnc(-c2ccccc2Cl)n1)N1CCCCC1 | inconclusive: 10 µM [activator, partial curve, poor fit] | 
Clc1cc(Br)ccc1OCCCNCc1ccccc1 | inconclusive: 5.17 µM [inhibitor, partial curve, poor fit] | 
CNC(=O)c1ccc(-c2sc3nc(N4CCOCC4)c4c(c3c2N)CC(C)(C)OC4)o1 | inconclusive: 35.5 µM [inhibitor, single point] | 
CCCc1ncc(CN2CCCCC2C(=O)Nc2ccc(Oc3ccccc3)nc2)cn1 (stereo not drawn) | inconclusive: 5.01 µM [inhibitor, full curve, poor fit] | 

SMILES | Potency | activity change, negative = inhibition
O=C(COc1ccc(S(=O)(=O)Nc2ccccc2)cc1)NCc1ccncc1 | inconclusive: 2.91 µM [inhibitor, partial curve] | 
Oc1cccc(-c2nc(-c3cccs3)c(-c3cccs3)[nH]2)c1 | inconclusive: 3.55 µM [activator, partial curve, poor fit] | 
CC(C)(C)NC(=O)CSc1nc2[nH]ncc2c(=O)[nH]1 | inconclusive: 35.5 µM [activator, single point] | 
Cc1ccc(OCC(=O)Nc2ccc(S(=O)(=O)N3CCN(C)CC3)cc2)cc1 | inconclusive: 3.55 µM [inhibitor, single point] | 
O=c1cc(C(F)(F)F)nc(-c2cccnc2)[nH]1 | inconclusive: 0.562 µM [inhibitor, full curve, poor fit] | 
O=C(c1ccc(Br)cc1)c1cc(-c2ccccn2)c(N2CCOCC2)s1 | inconclusive: 0.82 µM [inhibitor, full curve, poor fit] | 
O=C(CSc1nncn1-c1ccccc1F)NC1CC1 | inconclusive: 15.8 µM [activator, partial curve, poor fit] | 
CCOc1ccc(/C(O)=C2/C(=O)C(=O)N(CC3CCCO3)C2c2cccs2)cc1 (stereo not drawn) | inconclusive: 0.562 µM [activator, full curve, poor fit] | 
CCc1cc(C(c2ccccn2)N2CCN(C)CC2)c(NC(=O)c2ccccc2)s1 (stereo not drawn) | inconclusive: 11.2 µM [inhibitor, single point] | 
COC(=O)c1sc(N2C(=O)C(=O)/C(=C(/O)c3ccc(C)cc3)C2c2ccco2)nc1C (stereo not drawn) |  | inactive: -6.78% [at 46.1 µM]
COc1cccc(C2c3cc4c(cc3OC(N3CCOCC3)C2C)OCO4)c1O (stereo not drawn) |  | inactive: -10.7%
Nc1c(C(=O)NCc2ccco2)c2nc3ccccc3nc2n1CCN1CCOCC1 | inconclusive: 10.3 µM [inhibitor, partial curve] | 
COc1ccc(/C=C/C(=O)NC(=S)NCc2ccccc2)cc1OC | inconclusive: 10 µM [inhibitor, partial curve, poor fit] | 
O=C(c1cc(-c2cccnc2)nc2ccccc12)N1CCCc2ccccc21 | inconclusive: 1.78 µM [inhibitor, partial curve, poor fit] | 
O=C(Oc1cccc(-c2cnc3ccccc3n2)c1)c1ccco1 | inconclusive: 35.5 µM [inhibitor, single point] | 
C[N+]1=C2CCCCCN2C(O)(c2ccccc2)C1 (stereo not drawn) |  | inactive: 4.63%
COc1c(C)cccc1C(=O)Nc1cc(Cl)ccc1N1CCOCC1 | inconclusive: 20 µM [inhibitor, partial curve, poor fit] | 
Cc1c(F)cccc1NS(=O)(=O)c1ccc2c(c1)c(=O)n(C)c(=O)n2C | inconclusive: 15.8 µM [inhibitor, single point] | 
Cc1ccc2cc3cc(C(=O)NCCCN4CCc5ccccc5C4)oc3nc2c1 |  | inactive: -34.7%
Cc1ccccc1Nc1ccc(S(=O)(=O)N2CCOCC2)cc1[N+](=O)[O-] |  | inactive: -3.62%
COc1ccc(CN(C(C)=O)c2cccc(C)c2C)cc1 | inconclusive: 12.6 µM [inhibitor, partial curve, poor fit] | 
Cc1nc(C)c(C(=O)Nc2ncc([N+](=O)[O-])s2)o1 | inconclusive: 5.62 µM [inhibitor, partial curve, poor fit] | 
O=C(CSc1ncccn1)N/N=C/c1ccc2c(c1)OCO2 | inconclusive: 35.5 µM [activator, single point] | 

Fetched one by one from above, three records:
SMILES | Potency | activity change, negative = inhibition
CCc1cc2c(cc3c(=O)n(CC(=O)NC(C)C)nc(CC)n32)s1 |  | inactive: 10.8% [at 46.1 µM]
COc1ccc(/C=N/NC(=O)c2cc(-c3ccccc3OC(C)C)nc3ccccc23)cc1CN1CCOCC1 | inconclusive: 16.4 µM [inhibitor, single point] | 
Cc1c(F)cccc1NS(=O)(=O)c1ccc2c(c1)c(=O)n(C)c(=O)n2C | inconclusive: 15.8 µM [inhibitor, single point] | 

Next compounds:

SMILES | Potency | activity change, negative = inhibition
COc1ccc(-c2noc(CCC(=O)NCCc3cccc(C)c3)n2)cc1 |  | inactive: -12.4%
COC(=O)NC(c1ccc2c(c1)OCO2)C(C(=O)OC)C(=O)OC (stereo not drawn) | inactive | 
N=C1c2ccccc2CN1CC(=O)c1ccccc1 | inconclusive: 7.08 µM [inhibitor, partial curve, poor fit] | 
Cc1ccc(-n2nc(C)c3c2OC(N)=C(C#N)C3c2ccccc2F)cc1 (stereo not drawn) |  | inactive: 3.86%
COC(=O)c1ccccc1NC(=O)/C=C/c1cc(OC)c(OC)c(OC)c1 | inconclusive: 10 µM [inhibitor, single point] | 
CCOC(=O)CSc1ncnc2c1cnn2-c1ccc(C)cc1 | inconclusive: 1.41 µM [inhibitor, full curve] | 
CCN(C(=O)CSc1nc(N)cc(N)n1)C1CCS(=O)(=O)C1 (stereo not drawn) | inconclusive: 35.5 µM [activator, single point] | 
Cc1cccc(OCC(=O)NC(C)C(=O)N/N=C/c2c(OCc3ccccc3)ccc3ccccc23)c1 (stereo not drawn) | inconclusive: 32.6 µM [inhibitor, single point] | 
S=C(Nc1ccccc1)NC1CCN(Cc2ccccc2)CC1 | inconclusive: 10 µM [inhibitor, partial curve] | 
Cc1ccc(S(=O)(=O)c2c(C)nn(C(C)(C)C)c2OC(=O)C2CCCC2)cc1 | inconclusive: 20 µM [inhibitor, single point] | 
CCCCC1CC(/C(C)=N/NC(N)=O)OC1=O (stereo not drawn) | inconclusive: 7.08 µM [activator, partial curve, poor fit] | 
CC(N)=NCCCC(N)C(=O)O (stereo not drawn) |  | inactive: 2.1%
Cc1nnc(SCc2cccc3ccccc23)s1 | inconclusive: 3.55 µM [activator, partial curve, poor fit] | 
CC1CCCCN1CCCNC(=O)C1CCCN(c2ncnc3c2nc2n3CCCCC2)C1 (stereo not drawn) | inconclusive: 11.2 µM [inhibitor, partial curve, poor fit] | 
COCc1[nH]nc2c1C(c1ccccc1Cl)C(C#N)=C(N)O2 (stereo not drawn) | inconclusive: 0.058 µM [inhibitor, full curve, poor fit] | 
O=C(Nc1ccc(Oc2cccnc2)cc1)c1ccccc1Cl |  | inactive: -0.79% [at 46.1 µM]
COc1ccc(-n2cnnc2SCC(=O)Nc2cccnc2Cl)cc1 | inconclusive: 3.16 µM [activator, single point] | 
CC(Oc1ccc(Br)cc1)C(=O)N(Cc1nc(-c2ccccc2)no1)C(C)C (stereo not drawn) | inconclusive: 25.1 µM [inhibitor, single point] | 
COc1ccc(NC(=O)C2CCCN(c3c4c(nc5ncnn35)CCC4)C2)cc1OC (stereo not drawn) |  | inactive: -17.1%
Cn1c(=O)oc2cc(S(=O)(=O)N3CCCC(C(=O)N4CCN(c5ccc(F)cc5)CC4)C3)ccc21 (stereo not drawn) | inconclusive: 5.62 µM [activator, single point] | 
Cc1ccnc(N(C(=O)c2cccs2)C(=O)c2cccs2)c1 | inconclusive: 2.91 µM [activator, partial curve, poor fit] | 
O=C(c1ccccc1Cc1ccccc1)N1CCN(S(=O)(=O)c2ccccc2)CC1 | inconclusive: 31.6 µM [inhibitor, single point] | 
